For the experiment, the target named is T1, HA-tagged iR2-1-374 (human) (UniProt Q6PJF5).
T1 sequence: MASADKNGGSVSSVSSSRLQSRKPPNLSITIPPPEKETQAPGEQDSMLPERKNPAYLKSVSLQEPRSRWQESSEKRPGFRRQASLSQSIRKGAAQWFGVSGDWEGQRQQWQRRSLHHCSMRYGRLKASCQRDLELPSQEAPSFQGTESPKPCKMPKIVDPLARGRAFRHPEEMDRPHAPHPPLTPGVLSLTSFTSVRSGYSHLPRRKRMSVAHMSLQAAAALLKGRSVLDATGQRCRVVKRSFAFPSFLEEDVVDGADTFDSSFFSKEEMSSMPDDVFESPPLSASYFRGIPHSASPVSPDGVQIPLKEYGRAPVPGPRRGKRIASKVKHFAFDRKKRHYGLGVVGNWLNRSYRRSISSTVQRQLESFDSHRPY
Kind of experiment: co-IP.

Results are given in words; binding and its absence hold for the method and conditions named. Binding seen in cells or lysates may run through a third protein. A result given as binding can be weak or reduced; the word gives no strength. Where a sequence is shown, tags or fusion partners need not be part of it.

Turning to “transcription factor IID (human (endogenous in HEK293T))”, the binding entry is “binds”.

These data come from article doi:10.1101/2022.11.28.518246.
